In patent US20050113295A1 (priority 2003, published 2005):

Experiment: general procedure: Fmoc solid-phase peptide synthesis; Wang resin; DIC/HOBt/DMAP; HATU/DIEA for the last coupling
Details: whole synthesis, LC/MS (Finnigan AQA Thermo Quest; Alliance Waters 2695), scale of the general procedure 1 g resin, 1.20 mmol

Substance | purity (crude or final not stated) (TFA) [%] | purity (crude or final not stated) (6 TFA) [%]
H-Cpa-Gly-Gly-Phe-Leu | 99.4 | –
H-Cpa-Gly-Gly-Phe-Leu-Arg-Arg-Ile-Arg-Pro-Lys | – | 95.0
